The target of one experiment is T1, Myc-Chk1^L449R (UniProt O14757).
T1 sequence: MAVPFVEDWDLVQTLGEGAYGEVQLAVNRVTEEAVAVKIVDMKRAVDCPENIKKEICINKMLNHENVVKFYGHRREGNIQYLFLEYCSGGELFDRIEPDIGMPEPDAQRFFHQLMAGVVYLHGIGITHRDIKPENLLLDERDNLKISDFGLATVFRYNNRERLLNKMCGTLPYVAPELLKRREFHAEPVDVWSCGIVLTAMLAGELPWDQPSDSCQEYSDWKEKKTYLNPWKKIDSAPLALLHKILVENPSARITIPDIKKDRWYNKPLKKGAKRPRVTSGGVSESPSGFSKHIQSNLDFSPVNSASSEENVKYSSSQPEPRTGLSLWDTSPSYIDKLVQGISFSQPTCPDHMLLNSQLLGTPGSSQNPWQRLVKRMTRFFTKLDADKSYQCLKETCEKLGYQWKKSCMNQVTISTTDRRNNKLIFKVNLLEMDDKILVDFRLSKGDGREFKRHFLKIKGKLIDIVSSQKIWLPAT
The experiment is described as follows: co-IP.

Sequences of proteins named here, by UniProt entry; tags and fusion partners are left off. A change or cut given only in a name is not applied to a line headed by its entry.
UniProt Q9Y297, whole entry: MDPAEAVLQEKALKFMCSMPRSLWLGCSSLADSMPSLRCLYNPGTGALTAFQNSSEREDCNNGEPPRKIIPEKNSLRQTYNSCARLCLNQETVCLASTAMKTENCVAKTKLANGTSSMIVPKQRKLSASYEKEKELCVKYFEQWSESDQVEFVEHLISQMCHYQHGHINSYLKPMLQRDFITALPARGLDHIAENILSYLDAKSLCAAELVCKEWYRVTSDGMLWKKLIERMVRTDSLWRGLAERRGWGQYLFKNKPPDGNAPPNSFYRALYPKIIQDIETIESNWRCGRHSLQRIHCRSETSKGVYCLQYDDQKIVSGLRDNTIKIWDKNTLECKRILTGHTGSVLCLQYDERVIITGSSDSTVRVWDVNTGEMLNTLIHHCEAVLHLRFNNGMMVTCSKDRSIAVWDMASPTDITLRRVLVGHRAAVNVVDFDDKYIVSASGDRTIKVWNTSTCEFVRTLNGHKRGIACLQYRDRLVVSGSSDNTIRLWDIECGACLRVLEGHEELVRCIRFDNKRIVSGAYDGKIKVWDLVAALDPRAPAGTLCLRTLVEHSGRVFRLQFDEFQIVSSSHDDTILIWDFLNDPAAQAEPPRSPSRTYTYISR
UniProt Q9UM11, whole entry: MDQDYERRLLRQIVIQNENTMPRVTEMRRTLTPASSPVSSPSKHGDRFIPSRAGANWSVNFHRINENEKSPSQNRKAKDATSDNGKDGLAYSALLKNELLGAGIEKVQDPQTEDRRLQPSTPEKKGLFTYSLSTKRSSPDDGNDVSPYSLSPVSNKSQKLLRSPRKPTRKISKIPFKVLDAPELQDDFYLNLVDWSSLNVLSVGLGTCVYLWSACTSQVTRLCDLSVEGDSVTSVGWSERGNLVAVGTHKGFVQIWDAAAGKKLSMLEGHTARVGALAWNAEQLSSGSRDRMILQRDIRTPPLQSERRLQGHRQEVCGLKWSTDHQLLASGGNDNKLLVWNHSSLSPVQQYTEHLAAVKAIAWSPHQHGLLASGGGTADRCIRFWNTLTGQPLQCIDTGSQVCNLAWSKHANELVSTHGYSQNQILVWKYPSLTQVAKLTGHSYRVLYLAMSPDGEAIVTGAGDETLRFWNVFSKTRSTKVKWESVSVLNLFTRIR

A further experiment concerns the target Flag-βTRCP1 (UniProt Q9Y297). The experiment can be described thus: co-IP.
The target of experiment [1] is GST-Cdh1 phosphorylated in HeLa G1-S extract (UniProt Q9UM11). The experiment is described as follows: pull-down.

The source of these data is publication doi:10.1101/535799.

Results are given in words; binding and its absence hold for the method and conditions named. Binding seen in cells or lysates may run through a third protein. Some results given as binding are weak or reduced against the parent protein; the word gives no strength. For part of these data: Where a sequence is shown, tags or fusion partners need not be part of it.

For the substance “HA-Cdh1 (wild type, expressed in 293T cells) (from UniProt Q9UM11 1-496)”, the binding entry in the experiment with Myc-Chk1^L449R and with Flag-βTRCP1 was “binds” in each case.
Turning to “HA-βTRCP1 (in vitro translated) (from UniProt Q9Y297 1-605)”, the binding entry in experiment [1] is reported as “binds”.
